Experimental data taken from article PMC11530598.
No constants are given. Whether binding was seen depends on the method and setting.

Sequences of proteins named here, by UniProt entry; tags and fusion partners are left off. Residues count along the entry.
sfGFP-MAP1B HC^1-532 (P14873, residues 1-532): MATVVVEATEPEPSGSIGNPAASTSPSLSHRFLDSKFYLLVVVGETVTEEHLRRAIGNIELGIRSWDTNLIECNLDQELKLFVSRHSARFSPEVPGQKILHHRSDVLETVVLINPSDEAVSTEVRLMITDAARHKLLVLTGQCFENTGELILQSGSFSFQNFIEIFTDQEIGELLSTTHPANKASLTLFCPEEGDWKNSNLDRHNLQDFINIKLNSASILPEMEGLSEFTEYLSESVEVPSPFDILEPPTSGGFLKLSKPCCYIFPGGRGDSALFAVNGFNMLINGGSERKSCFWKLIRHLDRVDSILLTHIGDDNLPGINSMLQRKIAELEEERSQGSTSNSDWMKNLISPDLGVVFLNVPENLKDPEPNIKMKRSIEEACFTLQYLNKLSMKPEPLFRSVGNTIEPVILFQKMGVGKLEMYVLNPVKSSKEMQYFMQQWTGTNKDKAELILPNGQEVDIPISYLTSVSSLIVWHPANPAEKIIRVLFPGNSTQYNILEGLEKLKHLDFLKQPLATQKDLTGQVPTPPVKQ
MAP1B LC-mScarlet (P14873, residues 2203-2464): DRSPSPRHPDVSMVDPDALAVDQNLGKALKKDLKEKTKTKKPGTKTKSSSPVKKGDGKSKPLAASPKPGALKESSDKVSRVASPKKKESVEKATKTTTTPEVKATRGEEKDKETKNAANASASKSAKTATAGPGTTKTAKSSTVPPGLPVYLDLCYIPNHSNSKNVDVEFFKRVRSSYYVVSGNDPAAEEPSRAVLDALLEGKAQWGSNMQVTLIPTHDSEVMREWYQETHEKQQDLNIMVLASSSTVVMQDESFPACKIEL

Target: MAP1B LC-mScarlet (mouse) (UniProt P14873)
Test: TIRF microscopy recruitment assay; one MAP1B chain on microtubules, intensity of the other chain with and without it: LC-mScarlet on subtilisin-digested microtubules with or without sfGFP-HC^1-1500; sfGFP-HC^1-532 on microtubules with or without LC-mScarlet; both purified

binding: no binding
Substance: sfGFP-MAP1B HC^1-532 (from UniProt P14873 1-532) (domain or fragment)
